Reference: article PMC12431657, “Discovery and mechanistic insights of dibenzoylmethane as a broad spectrum inhibitor of coronavirus” (PLOS Pathogens, 2025)
Like-named read-outs stand apart in the source and are kept apart here. In all, about 3,300 compounds went through this assay and about 95 (3%) showed an effect of 50% or more. The list shows a part of the results. Peptide text beside a SMILES is read from it.

System: HCoV-229E
Design: species or system Huh-7; HTS, protection from HCoV-229E induced cell death, luminescent cell viability (CellCounting-Lite 2.0), inhibition rate
Details: 24 h post infection, 1 h compound pre-incubation, 10 µM, inhibitor

Compound | 229E Inhibition rate [%] | 229E Inhibition rate (229E Inhibition rate, 24 h) [%]
O=C(O)/C=C/c1cnc[nH]1 [Urocanic acid] | 13 | –
C[C@H](CCC(=O)O)[C@H]1CC[C@H]2[C@@H]3CC[C@@H]4C[C@H](O)CC[C@]4(C)[C@H]3CC[C@]12C [Lithocholic acid] | 28.4 | –
Cc1nc2ccccc2o1 [2-Methylbenzoxazole] | 0 | –
CC(C)=CCc1cc2c(cc1O)oc(=O)c1c3ccc(O)cc3oc21 [Psoralidin] | 43.7 | –
CCCCCCCCCCCCCCCCCCCCC [Heneicosane] | 4.6 | –
COc1cc2c(cc1OC)-c1c(C)c3ccc(OC)c(OC)c3c[n+]1CC2 [Dehydrocorydaline (chloride)] | – | 41.1
C=CCc1cc(OC)c(O[C@@H](C)[C@H](O)c2ccc(O)c(OC)c2)c(OC)c1 [Myrislignan] | 0 | –
O=C(O)CCc1ccc(O)c(O)c1 [Dihydrocaffeic acid] | 0 | –
C/C=C1\[C@H]2C=C(C)C[C@]1(N)c1ccc(=O)[nH]c1C2 [(-)-Huperzine A] | 16.2 | –
CC(C)=CCOc1c2ccoc2cc2oc(=O)ccc12 [Isoimperatorin] | 19.3 | –
COc1ccc(/C=C/C(=O)O)cc1O [Isoferulic acid] | 11.2 | –
CC(C)C1=C[C@H]2[C@@H](CC[C@]2(C)O)[C@](C)(O)CC1 [Alismoxide] | 10.6 | –
CC1(C)CC[C@]23CO[C@@]4(C=C[C@@H]5[C@@]6(C)CC[C@H](O)[C@@](C)(CO)[C@@H]6CC[C@@]5(C)[C@]4(C)C[C@@H]2O)[C@@H]3C1 [Saikogenin F] | 9.2 | –
Cc1c(O)c(C)c2occ(Cc3ccc4c(c3)OCO4)c(=O)c2c1O [Methylophiopogonone A] | 16.3 | –
C=C1C[C@@]23CC[C@H]4[C@@](C)(CCC[C@@]4(C)C(=O)O)[C@@H]2CC[C@@H]1C3 [Kaurenoic acid] | 8.8 | –
Cc1cc(O)c2c(c1)C(=O)c1cc(O)cc(O)c1C2=O [Emodin] | 26.5 | –
CC(C)(O)[C@@H]1CC[C@](C)([C@H]2[C@@H](O)C[C@@]3(C)[C@@H]4C[C@H](O)[C@H]5C(C)(C)[C@@H](O)CC[C@]5(C)C4=CC[C@]23C)O1 [Astragenol] | 18.5 | –
O=C(O)CC(=O)OC[C@H]1O[C@@H](Oc2c(-c3ccc(O)c(O)c3)oc3cc(O)cc(O)c3c2=O)[C@H](O)[C@@H](O)[C@@H]1O [Quercetin 3-O-(6''-O-malonyl)-β-D-glucoside] | 8 | –

Two of these compounds, reformatted:
Compound	229E Inhibition rate [%]	229E Inhibition rate (229E Inhibition rate, 24 h) [%]
COc1ccc(/C=C/C(=O)O)cc1O [Isoferulic acid]	11.2	–
Cc1cc(O)c2c(c1)C(=O)c1cc(O)cc(O)c1C2=O [Emodin]	26.5	–

The list goes on.

Compound | 229E Inhibition rate [%] | 229E Inhibition rate (229E Inhibition rate, 24 h) [%]
CC(C)=CCC[C@](C)(O[C@@H]1O[C@H](CO[C@@H]2O[C@H](CO)[C@@H](O)[C@H](O)[C@H]2O)[C@@H](O)[C@H](O)[C@H]1O)[C@H]1CC[C@]2(C)[C@@H]1[C@H](O)C[C@@H]1[C@@]3(C)CC[C@H](O[C@@H]4O[C@H](CO)[C@@H](O)[C@H](O)[C@H]4O[C@@H]4O[C@H](CO)[C@@H](O)[C@H](O)[C@H]4O)C(C)(C)[C@@H]3CC[C@]12C [Ginsenoside Rb1] | 12.4 | –
O=C(O)CC1CCCCC1 [Cyclohexaneacetic acid] | 8.6 | –
C/C=C(\C)C(=O)O[C@H]1[C@H](OC(C)=O)[C@]2(CO)[C@H](O)C[C@]3(C)C(=CC[C@@H]4[C@@]5(C)CC[C@H](O[C@@H]6O[C@H](C(=O)O)[C@@H](O[C@@H]7O[C@H](CO)[C@@H](O)[C@H](O)[C@H]7O)[C@H](O)[C@H]6O[C@@H]6O[C@H](CO)[C@@H](O)[C@H](O)[C@H]6O)[C@](C)(CO)[C@@H]5CC[C@]43C)[C@@H]2CC1(C)C [Escin IA] | 8.8 | –
O=C(O)CCCC(=O)C(=O)O [Oxoadipic acid] | 7 | –
O=C(O)c1ccc(CO)o1 [5-Hydroxymethyl-2-furancarboxylic acid] | 0 | –
O=C(O)C1CCCCN1O (centres unmarked) [N-Hydroxypipecolic acid] | 19 | –
C[C@H](CC[C@@H](O[C@@H]1O[C@H](CO)[C@@H](O)[C@H](O)[C@H]1O)C(C)(C)O)[C@H]1CC[C@@]2(C)[C@@H]3CC=C4[C@@H](CC[C@H](O[C@@H]5O[C@H](CO)[C@@H](O)[C@H](O)[C@H]5O)C4(C)C)[C@]3(C)[C@H](O)C[C@]12C [Mogroside IIe] | 17.6 | –
O=C1CCCCO1 [Tetrahydro-2H-pyran-2-one] | 36.9 | –
COc1cc(/C=C/C(=O)CC(=O)/C=C/c2ccc(O)c(OC)c2)ccc1O [Curcumin] | 26.3 | –
C[C@@H]1O[C@@H](O[C@H]2[C@H](Oc3c(-c4ccc(O)cc4)oc4cc(O)cc(O)c4c3=O)O[C@H](CO)[C@@H](O)[C@@H]2O)[C@H](O)[C@H](O)[C@H]1O [Kaempferol 3-neohesperidoside] | 17.2 | –
CC1(C)CC[C@]2(C(=O)O)CC[C@]3(C)C(=CC[C@@H]4[C@@]5(C)C[C@H](O)[C@H](O)[C@@](C)(C(=O)O)[C@@H]5CC[C@]43C)[C@@H]2C1 [Medicagenic acid] | 4.3 | –
C/C=C/c1ccc(OC)c(OC)c1 [Methyl isoeugenol] | 21.2 | –
CC(=O)O[C@@]12CO[C@@H]1C[C@@H](O)[C@@]1(C)C(=O)[C@H](O)C3=C(C)[C@@H](OC(=O)[C@H](O)[C@@H](NC(=O)c4ccccc4)c4ccccc4)C[C@@](O)([C@@H](OC(=O)c4ccccc4)[C@H]21)C3(C)C [7-Epi 10-desacetyl paclitaxel] | 21.4 | –
COc1c(O)c2c(=O)cc(OC)c3c4c(OC)cc(=O)c5c(O)c(OC)c6c(c(c1CC(C)=C6C(C)=O)c23)c54 [Hypocrellin B] | 1.2 | –
C/C(=C\CC[C@@H](C)[C@H]1CC[C@@]2(C)C3=CC[C@H]4C(C)(C)[C@@H](O)CC[C@]4(C)C3=CC[C@]12C)CO [Ganoderol B] | 7.7 | –
NCC(=O)N[C@@H](Cc1ccc(O)cc1)C(=O)O [Glycyl-L-tyrosine] (H-Gly-Tyr-OH) | 6.3 | –
Cc1nc2n(c(=O)c1CCN1CCC(c3noc4cc(F)ccc34)CC1)CCCC2O (centres unmarked) [Paliperidone] | 0 | –
